# Test results published in article doi:10.1101/2025.11.18.688769.
# By UniProt entry, the sequences of proteins in these tests, tags left out.
# UniProt Q61188: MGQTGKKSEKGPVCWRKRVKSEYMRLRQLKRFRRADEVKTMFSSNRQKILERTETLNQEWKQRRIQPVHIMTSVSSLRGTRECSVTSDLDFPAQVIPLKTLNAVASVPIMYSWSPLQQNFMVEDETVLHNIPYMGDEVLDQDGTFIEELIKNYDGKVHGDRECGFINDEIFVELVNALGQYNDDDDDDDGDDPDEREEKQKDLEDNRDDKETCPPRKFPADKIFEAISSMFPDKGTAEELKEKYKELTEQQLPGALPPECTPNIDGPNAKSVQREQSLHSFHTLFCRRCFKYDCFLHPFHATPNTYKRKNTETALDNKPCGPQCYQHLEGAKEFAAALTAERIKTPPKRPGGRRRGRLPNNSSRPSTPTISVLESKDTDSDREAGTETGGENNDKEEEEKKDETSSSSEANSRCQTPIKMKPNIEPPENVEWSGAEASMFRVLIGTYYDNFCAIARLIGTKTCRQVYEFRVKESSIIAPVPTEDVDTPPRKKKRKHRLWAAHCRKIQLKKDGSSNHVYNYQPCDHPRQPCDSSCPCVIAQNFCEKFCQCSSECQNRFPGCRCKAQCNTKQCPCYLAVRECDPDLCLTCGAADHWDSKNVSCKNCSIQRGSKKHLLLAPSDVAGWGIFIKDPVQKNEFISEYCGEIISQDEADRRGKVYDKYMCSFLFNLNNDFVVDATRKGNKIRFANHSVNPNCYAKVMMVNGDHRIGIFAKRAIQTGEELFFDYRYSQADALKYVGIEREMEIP
# Results are given in words; binding and its absence hold for the method and conditions named. Binding seen in cells or lysates may run through a third protein. Some results given as binding are weak or reduced against the parent protein; the word gives no strength.
# Target: T1, ERAS (embryonic Ras) (mouse) (UniProt Q7TN89)
# T1 sequence: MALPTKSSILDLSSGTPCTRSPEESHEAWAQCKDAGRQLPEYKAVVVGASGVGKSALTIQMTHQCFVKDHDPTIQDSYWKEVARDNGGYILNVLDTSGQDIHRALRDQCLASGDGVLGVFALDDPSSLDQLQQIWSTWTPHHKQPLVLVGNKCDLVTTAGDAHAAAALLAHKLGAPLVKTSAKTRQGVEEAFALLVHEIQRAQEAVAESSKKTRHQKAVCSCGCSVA
# Experiment: co-IP
substance,measurement,value
EZH2 (from UniProt Q61188 1-746),binding,binds
